Assay results taken from patent US20170038365A1, “SMALL MOLECULE INHIBITORS OF 8-OXOGUANINE DNA GLYCOSYLASE-1 (OGG1)” (OREGON HEALTH & SCIENCE UNIVERSITY, priority 2015, published 2017).
Structures were worked out from names or drawings and are uncertain.

The chains behind the UniProt entries cited, without tags or fusion partners.
UniProt O15527, whole entry: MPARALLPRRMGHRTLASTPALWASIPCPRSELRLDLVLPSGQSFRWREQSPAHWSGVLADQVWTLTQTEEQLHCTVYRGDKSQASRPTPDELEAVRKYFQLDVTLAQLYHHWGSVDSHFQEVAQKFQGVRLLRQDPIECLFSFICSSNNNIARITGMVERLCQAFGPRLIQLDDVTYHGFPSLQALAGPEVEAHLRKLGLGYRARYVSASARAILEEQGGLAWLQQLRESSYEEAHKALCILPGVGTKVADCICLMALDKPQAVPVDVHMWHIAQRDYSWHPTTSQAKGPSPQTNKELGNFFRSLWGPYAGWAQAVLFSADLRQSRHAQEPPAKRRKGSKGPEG

Molecular target: OGG1 (Homo sapiens, UniProt O15527)
Test: fluorescence-based OGG1 activity assay (TAMRA/BHQ2 8-oxo-Gua substrate)
Settings: hydrazide forms vs parent acyl hydrazones

NNC(=O)c1cc2ccccc2cc1O [3-hydroxy-2-naphthohudrazide]
OGG1 IC50 values compared with parent molecules: less than or equal to their parent molecules
